Data taken from ChEMBL document CHEMBL3988442, “University of Dundee, Small-Polar-MMV Screening Library” (2021).

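Viability assay of Plasmodium falciparum sporozoites; the read-out is not stated. The concentration is filed as 10 mM, unlikely as a test dose, so the dose is not known. Direction is inferred from retests: higher values go with lower viability. Strong results were mostly tested again. Size under these conditions: about 34,000 compounds, about 280 of them at 50% or above in at least one test.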

Values are the deposited “Percent Effect”, in %.
The controls that fix the scale are not given in the record; negative values are as filed.
The compounds are a random part of those screened.
Two or more numbers in one place are separate tests of the same structure; such repeats can differ widely.

* O=C(O)C(F)(F)F.[H][C@@]12COC[C@]1(COCC1CCOCC1)CN(C1CCC1)C2 : 19.53%
* CNC(=O)C1(c2cnccn2)CCCN1C(=O)c1cccnc1OC (centres undefined) : 9.194%
* Cc1ccccc1N1CCN(C(=O)CC(C)C)CC1 : -15.74%
* CNc1ncccc1CN1CCN(C(C)=O)CC(C(N)=O)C1 (centres undefined) : 15.03%
* O=C(O)C(F)(F)F.[H][C@@]12CCN(c3cccnc3)C[C@]1([H])CN(C(=O)CC1CCCC1)C2 : 3.853%
* Cc1cc(C(=O)N2CCCCC2C)ccc1NC(=O)N1CCOCC1 (centres undefined) : 5.626%
* COc1cc(CCC(=O)NC2CC2)ccc1OCC(F)(F)F : 6.112%
* O=C(NCCNc1ncccn1)C1CCN(C(=O)C2CC2)CC1 : -14.45%
* Cc1nc2cc(=O)[nH]n2c(C)c1CC(=O)NCCCc1ccccc1 : 19.98%
* [H][C@@]12CCN(Cc3nccs3)C[C@]1([H])[C@H](c1nc(C)no1)CCO2 : 2.259%
* O=C(NCCc1c[nH]c2ccc(F)cc12)C1(n2cnnn2)CCCCC1 : -4.995%
* CC(C)(C)NC(=O)C1CSCN1S(=O)(=O)c1cccc(F)c1 (centres undefined) : 0.1181%
* CC(C)n1c2ccccc2c2c1cc(C(=O)NCCO)n2C(=O)N(C)C : 8.023%
* CN(Cc1nnc(C2CC2)n1C)C(=O)c1ccnc(OC2CCC2)c1 : -10.24%
* COc1ccc(C2(C(=O)NC3CCc4nccn4C3)CCCC2)cc1 (centres undefined) : -15.2%
* O=C(NCC1CC1)C1CN(C(=O)NC2CCCC2)Cc2cncn2C1 (centres undefined) : 10.46%
* CCC(C)Sc1ncc(-c2c(C#N)c(N)nc3c2COCC3)cn1 (centres undefined) : -6.319%
* COCC(=O)NC1CC2(CCN(CCO)CC2)c2ccccc21.O=C(O)C(F)(F)F (centres undefined) : 14.02%
* CSCC(=O)N1CCC2(CC1)c1ccccc1CC2O (centres undefined) : 3.272%
* CNC(=O)C1(CCCc2ccncc2)CCCN1 (centres undefined) : -3.91%
* CCCc1n[nH]c(C2CN(C(=O)C3=COCCC3)CCO2)n1 (centres undefined) : -11%
* CCc1nccn1-c1cncc(C2CCCN2Cc2cccnc2)n1 (centres undefined) : -10.13%
* Cc1cc(CN2CCN(C(=O)c3sccc3C(C)C)CC2)no1 : -3.468%
* CCOc1ccccc1-n1c(C2CCC2)n[nH]c1=O : -4.297%
* Cc1csc2c(C3CCN(C(=O)Cn4cncn4)CC3)nc(C)n12 : 0.9974%
* COc1ncccc1NC(=O)NCC1CCS(=O)(=O)C1 (centres undefined) : 0.9812%
* CCc1cccc(NC(=O)N2CCn3cnc(COC)c3C2)c1 : 18.53%
* Cc1csc(N2CCCN(Cc3noc(C)n3)CC2)n1 : -17.42%
* O=C(C1CC1)N1CCN(Cc2coc(-c3ccc(Cl)cc3)n2)CC1 : 1.799%
* Cl.c1cn(-c2cnc(C3CCCNC3)cn2)cn1 (centres undefined) : 8.084%
* c1cc(CNc2ncc(-c3cnccn3)c([C@@H]3CCCO3)n2)ccn1 : 2.558%
* Cc1nccn1-c1cc(CNC(=O)CC2CCCO2)ccn1 (centres undefined) : -7.271%
* CCN1CCC2(CN(C(C)=O)CC23CCN(C(=O)N(C)C)CC3)C1=O (centres undefined) : 1.027%
* COc1cc(N2CCCC(c3nccn3Cc3cscn3)C2)nc(N)n1 (centres undefined) : 8.836%
* COc1cc(C)nc(N2CCN(C(=O)c3ccccc3C)CC2)n1 : 9.28%
* Cc1cc(CN2CCN(C(=O)Nc3cccnc3)CC2)on1 : 6.76%
* Cc1ccc(C(=O)Nc2cn[nH]c2)cc1C : -11.54%
* CCCc1nc(C(C)(C)NC(=O)C2CC(=O)N(C3CC3)C2)no1 (centres undefined) : 7.971%
* Cn1cnc2c1CCN(Cc1csc(-c3ccccc3F)n1)C2 : 76.94% and 88.44% and 75.64%
* CNS(=O)(=O)c1ccc(C(=O)NC2CCc3nc(C)cn3C2)o1 (centres undefined) : -2.803%
* Cl.O=C1CC2(CCCNC2)C(=O)N1Cc1ccc(F)cc1 (centres undefined) : 13.06% and -2.847% and 9.103%
* CC(C)C[C@H](N)C(=O)N1CC2(CCNCC2)c2cc(Cl)ccc21.Cl.Cl : -1.444%
* [H][C@@]12C[C@H](C(=O)N(C)C)[C@@]([H])(CN(S(=O)(=O)Cc3ccccc3)C1)O2 : 4.268%
* Cc1cnn(CCC(=O)N2CCCC(c3ccn[nH]3)C2)c1 (centres undefined) : -2.704%
* O=C(c1ccc2c(c1)OCO2)N1CCCC(Nc2ccc(F)cc2)C1 (centres undefined) : -17.98%
* COc1cccc(N2CC3(CCN(Cc4nccn4C)C3)CC2=O)c1.O=C(O)C(F)(F)F (centres undefined) : 7.378%
* Cn1cc(C2CCCN2Cc2csc(C(C)(C)C)n2)cn1 (centres undefined) : -4.359%
* O=C(c1ccn(-c2cccc(F)c2)n1)N1CCCC(n2cccn2)C1 (centres undefined) : -15.95%
* [H][C@@]12CS(=O)(=O)C[C@]1([H])N(Cc1ncc[nH]1)CCN2C/C=C/c1ccccc1 : 0.1065%
* c1cnn(CC2CCCN2Cc2nc(-c3ccoc3)no2)c1 (centres undefined) : -15.69%
* CN(C)CCN1C(=O)CCCC12CCCN(C(=O)c1ccncc1)C2.O=C(O)C(F)(F)F.O=C(O)C(F)(F)F (centres undefined) : 1.627%
* O=C(O)C(F)(F)F.[H][C@]12CCN(c3cnccn3)CC[C@]1([H])N(CC(C)C)CCO2 : 1.04%
* Cc1nn(C)c2nc3c(c(C(=O)/N=c4\[nH]nc(C(C)C)s4)c12)CCC3 : -12.18%
* [H][C@]12CC[C@]([H])(CN(c3cnccn3)C1)N(C(=O)Cc1sc(C)nc1C)C2 : 0.7018%